Reference: PMC2361459, “Safety, tolerability and pharmacokinetics of intravenous ghrelin for cancer-related anorexia/cachexia: a randomised, placebo-controlled, double-blind, double-crossover study” (British Journal of Cancer, 2008)
Where two headings read alike, the source gives them in different places.

Tested on: patients with advanced incurable cancer and anorexia/cachexia

SMILES: CCCCCCCC(=O)OC[C@H](NC(=O)[C@H](CO)NC(=O)CN)C(=O)N[C@@H](Cc1ccccc1)C(=O)N[C@@H](CC(C)C)C(=O)N[C@@H](CO)C(=O)N1CCC[C@H]1C(=O)N[C@@H](CCC(=O)O)C(=O)N[C@@H](Cc1c[nH]cn1)C(=O)N[C@@H](CCC(N)=O)C(=O)N[C@@H](CCCNC(=N)N)C(=O)N[C@H](C(=O)N[C@@H](CCC(N)=O)C(=O)N[C@@H](CCC(N)=O)C(=O)N[C@@H](CCCNC(=N)N)C(=O)N[C@@H](CCCCN)C(=O)N[C@@H](CCC(=O)O)C(=O)N[C@@H](CO)C(=O)N[C@@H](CCCCN)C(=O)N[C@@H](CCCCN)C(=O)N1CCC[C@H]1C(=O)N1CCC[C@H]1C(=O)N[C@@H](C)C(=O)N[C@@H](CCCCN)C(=O)N[C@@H](CC(C)C)C(=O)N[C@@H](CCC(N)=O)C(=O)N1CCC[C@H]1C(=O)N[C@@H](CCCNC(=N)N)C(=O)O)C(C)C [ghrelin]
- patients who preferred ghrelin to placebo (at the end of study, both dose groups): 63%
- treatment preference (VAS 0–100), median (min, max) (day 7, lower dose, sequence G-P, low numbers = prefers first treatment): 42 (3, 66)
- treatment preference (VAS 0–100), median (min, max) (day 7, lower dose, sequence P-G, high numbers = prefers second treatment): 80 (49, 100)
- treatment preference (VAS 0–100), median (min, max) (day 7, upper dose, sequence G-P, low numbers = prefers first treatment): 45 (2, 96)
- treatment preference (VAS 0–100), median (min, max) (day 7, upper dose, sequence P-G, high numbers = prefers second treatment): 77 (54, 100)
- treatment preference (VAS 0–100), median (min, max) (end-of-study, lower dose, sequence G-P-G-P, low numbers = prefers first and third treatment): 20 (10, 99)
- treatment preference (VAS 0–100), median (min, max) (end-of-study, lower dose, sequence P-G-P-G, high numbers = prefers second and fourth treatment): 54 (5, 100)
- treatment preference (VAS 0–100), median (min, max) (end-of-study, upper dose, sequence G-P-G-P, low numbers = prefers first and third treatment): 69 (56, 94)
- treatment preference (VAS 0–100), median (min, max) (end-of-study, upper dose, sequence P-G-P-G, high numbers = prefers second and fourth treatment): 83 (56, 100)
